PubChem BioAssay AID1259254, NCATS, 2017
Test: 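Gene knock-downs that lead to re-replication, shown by excess G2 DNA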 (primary screen). Cells: human HCT116 colorectal cancer cells. Knock-down reagent: single siRNA against human genes. Duration: 3 days. Read-out: 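Nuclei stained with Hoechst and imaged; cell-cycle phase assigned by DNA content; G2 share scaled per plate, non-targeting siRNA 0%, GMNN siRNA 100%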. Reading the numbers: G2 robust z-score: higher = more G2 cells, more excess DNA replication. Rule for the call: 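Active siRNAs have a G2 robust z of 5 or more median absolute deviations over the median, which in these data means about 38% or higher of GMNN control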.
In all, the deposit lists about 59,000 reagents; this is a part drawn at random. About 1,550 of all reagents (2.6%) count as active. 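G2 share is only a proxy for re-replication; each gene was hit by three separate siRNAs, and active genes were retested.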 The numbers tell different reagents against one gene apart. Not all columns of the deposit are shown. The record does not give: the amount of reagent.

no.	gene symbol	reagent	G2 robust z-score	outcome
1	CD44	1	-1.35	inactive
2	CD44	2	-0.527	inactive
3	CD44	3	-0.183	inactive
4	KRT12	1	-0.906	inactive
5	KRT12	2	1.55	inactive
6	KRT12	3	1.23	inactive
7	RPSAP22	1	-0.218	inactive
8	RPSAP22	2	1.05	inactive
9	RPSAP22	3	0.0525	inactive
10	TMEM17	1	0.265	inactive
11	TMEM17	2	-0.949	inactive
12	TMEM17	3	2.51	inactive
13	OR13H1	1	-0.866	inactive
14	OR13H1	2	-0.329	inactive
15	OR13H1	3	1.27	inactive
16	PSD4	1	-1.11	inactive
17	PSD4	2	1	inactive
18	PSD4	3	5.74	active
19	HTRA3	1	1.09	inactive
20	HTRA3	2	1.54	inactive
21	HTRA3	3	0.384	inactive
22	LRRC52	1	-0.0977	inactive
23	LRRC52	2	-0.589	inactive
24	LRRC52	3	-0.289	inactive
25	LOC727799 (retired record)	1	0.108	inactive
26	LOC727799 (retired record)	2	-0.945	inactive
27	LOC727799 (retired record)	3	0.323	inactive
28	SCYL1	1	0.469	inactive
29	SCYL1	2	0.468	inactive
30	SCYL1	3	8.92	active
31	ELP5	1	-0.508	inactive
32	ELP5	2	-0.176	inactive
33	ELP5	3	-0.486	inactive
34	SLC36A2	1	-0.223	inactive
35	SLC36A2	2	-0.626	inactive
36	SLC36A2	3	2.91	inactive
37	CDC37P1	1	0.342	inactive
38	CDC37P1	2	0.973	inactive
39	CDC37P1	3	0.527	inactive
40	C8A	1	-0.823	inactive
41	C8A	2	-0.262	inactive
42	C8A	3	-0.61	inactive
43	CCDC40	1	-0.194	inactive
44	CCDC40	2	1.16	inactive
45	CCDC40	3	-1.09	inactive
46	UBLCP1	1	0.863	inactive
47	UBLCP1	2	-0.201	inactive
48	UBLCP1	3	0.623	inactive
49	COPS5	1	0.0371	inactive
50	COPS5	2	0.943	inactive
51	COPS5	3	-0.226	inactive

A portion from the list above, for reference:
no.	gene symbol	reagent	G2 robust z-score	outcome
7	RPSAP22	1	-0.218	inactive
8	RPSAP22	2	1.05	inactive
9	RPSAP22	3	0.0525	inactive
10	TMEM17	1	0.265	inactive
11	TMEM17	2	-0.949	inactive

Further entries follow:
no.	gene symbol	reagent	G2 robust z-score	outcome
52	LOC643496 (retired record)	1	-0.25	inactive
53	LOC643496 (retired record)	2	-0.716	inactive
54	LOC643496 (retired record)	3	-0.0342	inactive
55	TUSC1	1	0.669	inactive
56	TUSC1	2	1.33	inactive
57	TUSC1	3	-0.761	inactive
58	IKBIP	1	0.1	inactive
59	IKBIP	2	-0.825	inactive
60	IKBIP	3	-0.0572	inactive
61	MAP3K7CL	1	-0.544	inactive
62	MAP3K7CL	2	-0.443	inactive
63	MAP3K7CL	3	0.0354	inactive
64	GABRB1	1	3.89	inactive
65	GABRB1	2	-0.537	inactive
66	GABRB1	3	1.43	inactive
67	SUGP1	1	-0.491	inactive
68	SUGP1	2	0.467	inactive
69	SUGP1	3	-0.704	inactive
70	ERLIN2	1	0.286	inactive
71	ERLIN2	2	2.67	inactive
72	ERLIN2	3	1.65	inactive
73	TBC1D10A	1	1.35	inactive
74	TBC1D10A	2	0.162	inactive
75	TBC1D10A	3	0.366	inactive
76	TOM1L2	1	-0.871	inactive
77	TOM1L2	2	1.24	inactive
78	TOM1L2	3	-1	inactive
79	HLA-DPA1	1	2.21	inactive
80	HLA-DPA1	2	0.104	inactive
81	HLA-DPA1	3	-0.298	inactive
82	ARHGAP8	1	-0.094	inactive
83	ARHGAP8	2	-0.0201	inactive
84	ARHGAP8	3	2	inactive
85	LMNTD2	1	3.47	inactive
86	LMNTD2	2	0.12	inactive
87	LMNTD2	3	0.696	inactive
